Laboratory results: PubChem BioAssay AID504791 (Drosophila RNAi Screening Center, 2011)
The screen tested about 23,000 reagents; below is a random part of those with a known target gene and a result. In the full data, 199 (0.86%) were called active. 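Plate-scaled ratios behind the calls are not deposited; printed light signals are raw; many rows marked increased or decreased are still called inactive.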 Reagent sequences are not shown. Not given: the direction of the score.

Aim: 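Genes of the fly required for silencing by miRNA, siRNA or endo-siRNA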 (primary screen)
System: Drosophila S2-derived reporter cells
Reagents: long dsRNA against Drosophila genes, about 150-250 ng dsRNA per well (siRNA assay); about 80-120 ng (miRNA assay)
Time to read-out: about 5 days (siRNA assay); about 4 days (miRNA assay)
Treatment: copper sulfate induction of reporters: 25 µM (siRNA assay); 200 mM stated (miRNA assay), 1-2 days before reading
Read-out: 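Dual luciferase assay: Renilla to firefly signal ratio in each well, scaled to the mean ratio of its plate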
Units: stable assay Renilla, run 1 in luminescence; stable assay firefly, run 1 in luminescence
Call rule: 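a well was a first-pass pick when its plate-scaled ratio rose above 1.5 (siRNA assay) or 1.6 (miRNA assay), or dropped below 0.6; a gene counted only if two separate dsRNAs agreed on retest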

Which result is listed for slf (schlaff) [DRSC00583]?
stable assay Renilla, run 1: 7863; stable assay firefly, run 1: 4.52e5; Outcome: inactive

What is on record for PLCXD [DRSC02427]?
stable assay Renilla, run 1: 4563; stable assay firefly, run 1: 3.37e5; Outcome: inactive

Which result is listed for hop (hopscotch) [DRSC20340]?
stable assay Renilla, run 1: 5614; stable assay firefly, run 1: 5.94e5; Outcome: inactive

With hop (hopscotch) [DRSC23334], what does the deposit list?
stable assay Renilla, run 1: 4683; stable assay firefly, run 1: 3.10e5; Outcome: inactive

Reformatted: results already given
| gene | DRSC id | stable siRNA reporter change | stable assay Renilla, run 1 | stable assay firefly, run 1 | Outcome |
| --- | --- | --- | --- | --- | --- |
| PLCXD | DRSC02427 | – | 4563 | 3.37e5 | inactive |
| hop (hopscotch) | DRSC20340 | – | 5614 | 5.94e5 | inactive |

Continued.
What is on record for CG13170 [DRSC06298]?
stable assay Renilla, run 1: 6155; stable assay firefly, run 1: 4.02e5; Outcome: inactive

What did the screen give for OtopLc (Otopetrin-like c) [DRSC18082]?
stable assay Renilla, run 1: 4695; stable assay firefly, run 1: 2.72e5; Outcome: inactive

Which result is listed for OtopLc (Otopetrin-like c) [DRSC18083]?
stable assay Renilla, run 1: 2816; stable assay firefly, run 1: 1.76e5; Outcome: inactive

What did the screen give for OtopLc (Otopetrin-like c) [DRSC18132]?
stable assay Renilla, run 1: 4811; stable assay firefly, run 1: 2.61e5; Outcome: inactive

For Atxn7 (Ataxin 7) [DRSC00726], how do the results read?
stable assay Renilla, run 1: 8559; stable assay firefly, run 1: 1.38e5; Outcome: inactive

How did the screen score Atxn7 (Ataxin 7) [DRSC23138]?
stable assay Renilla, run 1: 4023; stable assay firefly, run 1: 3.20e5; Outcome: inactive

What is on record for CG4768 [DRSC19917]?
stable siRNA reporter change: reporter ratio lowered past the hit cutoff; stable assay Renilla, run 1: 5551; stable assay firefly, run 1: 5.50e5; Outcome: inactive

For Jarid2 (Jumonji, AT rich interactive domain 2) [DRSC10372], how do the results read?
stable assay Renilla, run 1: 8148; stable assay firefly, run 1: 4.58e5; Outcome: inactive
